Reference: the supplement of paper PMC10849652
The other results are listed elsewhere or left out.

Protein sequences, listed by entry. Tags and fused reporters are not part of them. Lines headed by an entry give the natural chain unless they say otherwise; changes in a name come on top.
UniProt Q9BQD3: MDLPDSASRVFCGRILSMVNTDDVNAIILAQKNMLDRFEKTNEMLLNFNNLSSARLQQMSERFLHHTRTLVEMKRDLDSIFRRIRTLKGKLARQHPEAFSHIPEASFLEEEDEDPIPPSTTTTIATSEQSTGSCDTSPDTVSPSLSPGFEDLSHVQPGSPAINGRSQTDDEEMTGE
UniProt Q5TKA1: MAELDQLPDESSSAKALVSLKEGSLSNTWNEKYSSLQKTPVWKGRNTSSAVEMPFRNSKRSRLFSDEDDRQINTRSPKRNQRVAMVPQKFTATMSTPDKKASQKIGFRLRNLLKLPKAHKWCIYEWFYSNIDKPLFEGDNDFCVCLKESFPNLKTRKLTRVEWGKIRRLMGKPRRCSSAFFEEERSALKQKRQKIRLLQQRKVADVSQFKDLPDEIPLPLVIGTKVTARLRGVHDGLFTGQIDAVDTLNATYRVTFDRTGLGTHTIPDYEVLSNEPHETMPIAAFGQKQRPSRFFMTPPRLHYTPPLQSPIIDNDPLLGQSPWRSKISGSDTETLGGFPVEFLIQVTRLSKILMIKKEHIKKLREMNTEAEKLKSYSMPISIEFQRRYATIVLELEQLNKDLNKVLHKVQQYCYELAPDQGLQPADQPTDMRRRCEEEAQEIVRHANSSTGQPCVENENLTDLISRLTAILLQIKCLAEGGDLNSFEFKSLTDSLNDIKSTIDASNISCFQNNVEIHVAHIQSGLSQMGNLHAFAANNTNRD
UniProt P49917: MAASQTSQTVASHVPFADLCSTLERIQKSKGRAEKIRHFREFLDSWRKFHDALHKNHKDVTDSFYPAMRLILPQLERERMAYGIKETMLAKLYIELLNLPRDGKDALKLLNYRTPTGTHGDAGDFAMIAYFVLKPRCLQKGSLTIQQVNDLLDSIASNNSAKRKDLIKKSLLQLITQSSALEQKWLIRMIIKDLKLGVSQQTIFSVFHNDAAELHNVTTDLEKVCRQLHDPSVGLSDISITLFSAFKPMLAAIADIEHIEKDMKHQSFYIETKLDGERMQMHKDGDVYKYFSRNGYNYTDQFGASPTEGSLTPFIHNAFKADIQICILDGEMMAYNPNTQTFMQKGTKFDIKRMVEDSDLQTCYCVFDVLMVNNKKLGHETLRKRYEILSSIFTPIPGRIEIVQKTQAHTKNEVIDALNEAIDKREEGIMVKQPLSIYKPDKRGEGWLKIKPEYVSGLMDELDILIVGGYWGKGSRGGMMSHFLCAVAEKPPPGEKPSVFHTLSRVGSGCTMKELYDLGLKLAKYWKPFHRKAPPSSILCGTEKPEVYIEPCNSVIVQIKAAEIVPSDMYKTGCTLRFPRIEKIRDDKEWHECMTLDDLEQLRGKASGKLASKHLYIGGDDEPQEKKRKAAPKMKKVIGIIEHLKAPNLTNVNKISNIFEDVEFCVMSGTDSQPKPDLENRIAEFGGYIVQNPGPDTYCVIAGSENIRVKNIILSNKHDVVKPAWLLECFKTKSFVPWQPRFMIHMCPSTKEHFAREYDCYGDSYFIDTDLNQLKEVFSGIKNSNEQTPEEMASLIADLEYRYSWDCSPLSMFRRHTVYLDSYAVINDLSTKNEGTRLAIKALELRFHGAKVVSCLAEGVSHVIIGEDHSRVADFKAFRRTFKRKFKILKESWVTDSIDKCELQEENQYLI
UniProt O15243: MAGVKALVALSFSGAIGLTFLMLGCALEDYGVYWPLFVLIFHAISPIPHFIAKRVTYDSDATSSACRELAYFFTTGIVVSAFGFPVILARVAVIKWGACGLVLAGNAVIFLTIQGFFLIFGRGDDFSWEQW
UniProt Q13094: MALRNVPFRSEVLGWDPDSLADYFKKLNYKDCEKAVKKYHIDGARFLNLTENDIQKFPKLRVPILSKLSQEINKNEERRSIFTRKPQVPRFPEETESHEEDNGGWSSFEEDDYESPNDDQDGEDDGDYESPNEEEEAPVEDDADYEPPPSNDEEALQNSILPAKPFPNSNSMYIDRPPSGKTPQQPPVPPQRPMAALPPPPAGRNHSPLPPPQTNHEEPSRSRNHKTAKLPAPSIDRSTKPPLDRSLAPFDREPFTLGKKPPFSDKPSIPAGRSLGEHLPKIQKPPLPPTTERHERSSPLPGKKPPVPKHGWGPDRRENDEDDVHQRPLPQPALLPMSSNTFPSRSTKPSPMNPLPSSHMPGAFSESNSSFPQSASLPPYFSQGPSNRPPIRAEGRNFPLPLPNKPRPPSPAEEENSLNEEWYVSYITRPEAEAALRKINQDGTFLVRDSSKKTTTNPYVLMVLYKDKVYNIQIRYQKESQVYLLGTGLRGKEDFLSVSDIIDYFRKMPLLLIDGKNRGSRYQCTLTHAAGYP
UniProt Q53QV2: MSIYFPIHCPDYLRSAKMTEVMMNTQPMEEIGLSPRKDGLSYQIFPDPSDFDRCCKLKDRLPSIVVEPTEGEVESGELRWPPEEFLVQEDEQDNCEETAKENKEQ
UniProt Q86VI4: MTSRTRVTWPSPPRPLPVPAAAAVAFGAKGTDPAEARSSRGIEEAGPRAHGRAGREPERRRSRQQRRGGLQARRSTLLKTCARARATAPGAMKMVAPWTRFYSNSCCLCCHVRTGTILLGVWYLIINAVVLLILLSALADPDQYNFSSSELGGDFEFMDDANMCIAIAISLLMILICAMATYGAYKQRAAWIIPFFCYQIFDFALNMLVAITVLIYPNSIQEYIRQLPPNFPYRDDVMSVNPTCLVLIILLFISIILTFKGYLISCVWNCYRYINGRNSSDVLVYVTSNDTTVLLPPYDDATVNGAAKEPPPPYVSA
UniProt Q9P244: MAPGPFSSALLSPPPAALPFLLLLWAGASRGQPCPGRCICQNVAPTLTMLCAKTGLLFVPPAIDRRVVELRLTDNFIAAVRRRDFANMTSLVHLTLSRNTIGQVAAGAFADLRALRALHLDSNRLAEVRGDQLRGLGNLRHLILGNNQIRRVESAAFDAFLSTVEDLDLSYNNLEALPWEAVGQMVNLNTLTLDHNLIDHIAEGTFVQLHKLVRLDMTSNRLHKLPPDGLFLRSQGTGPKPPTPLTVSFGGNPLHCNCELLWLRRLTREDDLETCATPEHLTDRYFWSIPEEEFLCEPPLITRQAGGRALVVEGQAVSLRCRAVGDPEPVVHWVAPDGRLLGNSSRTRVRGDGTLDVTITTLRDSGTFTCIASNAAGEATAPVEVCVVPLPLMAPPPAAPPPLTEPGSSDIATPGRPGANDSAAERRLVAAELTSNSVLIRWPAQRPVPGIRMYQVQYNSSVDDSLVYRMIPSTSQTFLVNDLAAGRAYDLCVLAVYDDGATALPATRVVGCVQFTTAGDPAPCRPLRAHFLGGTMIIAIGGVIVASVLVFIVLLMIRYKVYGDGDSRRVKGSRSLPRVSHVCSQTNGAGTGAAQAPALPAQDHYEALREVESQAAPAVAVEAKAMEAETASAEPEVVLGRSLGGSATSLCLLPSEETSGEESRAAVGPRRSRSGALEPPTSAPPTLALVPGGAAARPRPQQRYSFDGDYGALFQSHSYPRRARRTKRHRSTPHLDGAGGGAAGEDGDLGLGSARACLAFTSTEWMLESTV
UniProt O75427: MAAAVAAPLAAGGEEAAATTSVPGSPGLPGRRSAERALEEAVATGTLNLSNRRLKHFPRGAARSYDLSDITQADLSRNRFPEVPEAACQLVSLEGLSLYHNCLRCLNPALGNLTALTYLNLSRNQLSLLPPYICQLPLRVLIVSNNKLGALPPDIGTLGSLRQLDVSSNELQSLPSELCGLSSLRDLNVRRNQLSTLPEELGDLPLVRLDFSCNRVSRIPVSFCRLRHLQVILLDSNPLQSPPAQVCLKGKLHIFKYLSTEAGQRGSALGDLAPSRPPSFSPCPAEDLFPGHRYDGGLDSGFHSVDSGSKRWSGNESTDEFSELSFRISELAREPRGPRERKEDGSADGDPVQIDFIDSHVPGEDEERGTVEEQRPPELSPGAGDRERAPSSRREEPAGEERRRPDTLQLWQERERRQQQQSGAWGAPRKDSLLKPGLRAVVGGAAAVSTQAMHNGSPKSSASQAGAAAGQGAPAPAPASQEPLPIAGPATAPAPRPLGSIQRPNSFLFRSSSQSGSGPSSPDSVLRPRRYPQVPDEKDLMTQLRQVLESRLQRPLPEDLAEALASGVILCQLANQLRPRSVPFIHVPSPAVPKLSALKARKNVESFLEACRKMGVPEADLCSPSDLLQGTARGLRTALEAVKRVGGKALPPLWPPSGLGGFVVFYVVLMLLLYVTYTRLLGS
UniProt Q86WU2: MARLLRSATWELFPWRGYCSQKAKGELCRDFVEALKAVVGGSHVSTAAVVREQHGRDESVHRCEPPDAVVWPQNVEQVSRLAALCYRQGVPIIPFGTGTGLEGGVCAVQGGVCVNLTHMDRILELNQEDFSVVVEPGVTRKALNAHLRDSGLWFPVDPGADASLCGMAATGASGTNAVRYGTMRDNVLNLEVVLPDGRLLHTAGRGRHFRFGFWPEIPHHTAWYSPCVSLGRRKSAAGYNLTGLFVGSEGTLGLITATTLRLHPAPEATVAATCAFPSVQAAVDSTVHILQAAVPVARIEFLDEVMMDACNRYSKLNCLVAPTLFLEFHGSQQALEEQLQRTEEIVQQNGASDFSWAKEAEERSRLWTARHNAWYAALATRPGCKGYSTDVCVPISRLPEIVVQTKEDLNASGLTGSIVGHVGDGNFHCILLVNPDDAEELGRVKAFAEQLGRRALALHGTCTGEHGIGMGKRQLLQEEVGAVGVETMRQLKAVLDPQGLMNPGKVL
UniProt Q13571: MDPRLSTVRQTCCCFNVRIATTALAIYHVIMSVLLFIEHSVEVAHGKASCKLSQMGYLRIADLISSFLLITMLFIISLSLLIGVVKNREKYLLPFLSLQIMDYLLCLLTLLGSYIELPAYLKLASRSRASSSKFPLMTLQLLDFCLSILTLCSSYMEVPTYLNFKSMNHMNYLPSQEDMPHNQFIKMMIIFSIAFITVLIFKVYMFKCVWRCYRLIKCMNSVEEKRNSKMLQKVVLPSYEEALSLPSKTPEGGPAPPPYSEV
UniProt P48059, whole entry, looked up: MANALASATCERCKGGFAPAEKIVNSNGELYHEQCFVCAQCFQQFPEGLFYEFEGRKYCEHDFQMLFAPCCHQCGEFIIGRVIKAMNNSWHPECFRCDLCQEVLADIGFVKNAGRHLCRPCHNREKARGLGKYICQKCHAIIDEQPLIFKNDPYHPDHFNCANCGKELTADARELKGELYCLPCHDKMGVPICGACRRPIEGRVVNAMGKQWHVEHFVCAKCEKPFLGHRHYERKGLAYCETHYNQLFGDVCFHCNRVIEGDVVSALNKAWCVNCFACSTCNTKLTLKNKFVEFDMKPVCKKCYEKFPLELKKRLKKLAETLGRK
UniProt P53667: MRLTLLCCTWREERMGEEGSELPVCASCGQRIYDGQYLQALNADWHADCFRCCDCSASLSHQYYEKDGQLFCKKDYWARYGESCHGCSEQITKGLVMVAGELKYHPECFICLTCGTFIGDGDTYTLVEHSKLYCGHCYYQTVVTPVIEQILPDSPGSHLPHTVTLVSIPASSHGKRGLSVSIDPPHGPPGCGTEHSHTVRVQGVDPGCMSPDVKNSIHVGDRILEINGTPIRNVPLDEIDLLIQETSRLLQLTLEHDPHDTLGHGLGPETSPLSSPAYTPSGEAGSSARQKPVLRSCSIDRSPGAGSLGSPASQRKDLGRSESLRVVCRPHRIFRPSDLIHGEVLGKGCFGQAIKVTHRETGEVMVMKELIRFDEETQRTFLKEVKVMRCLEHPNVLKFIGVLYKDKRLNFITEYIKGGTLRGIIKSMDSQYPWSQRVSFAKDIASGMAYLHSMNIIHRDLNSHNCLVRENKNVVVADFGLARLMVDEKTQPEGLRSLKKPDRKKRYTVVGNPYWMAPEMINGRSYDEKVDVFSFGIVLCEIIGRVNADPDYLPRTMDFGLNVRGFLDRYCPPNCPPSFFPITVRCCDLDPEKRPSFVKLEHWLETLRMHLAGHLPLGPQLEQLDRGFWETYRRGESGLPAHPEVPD
UniProt Q643R3: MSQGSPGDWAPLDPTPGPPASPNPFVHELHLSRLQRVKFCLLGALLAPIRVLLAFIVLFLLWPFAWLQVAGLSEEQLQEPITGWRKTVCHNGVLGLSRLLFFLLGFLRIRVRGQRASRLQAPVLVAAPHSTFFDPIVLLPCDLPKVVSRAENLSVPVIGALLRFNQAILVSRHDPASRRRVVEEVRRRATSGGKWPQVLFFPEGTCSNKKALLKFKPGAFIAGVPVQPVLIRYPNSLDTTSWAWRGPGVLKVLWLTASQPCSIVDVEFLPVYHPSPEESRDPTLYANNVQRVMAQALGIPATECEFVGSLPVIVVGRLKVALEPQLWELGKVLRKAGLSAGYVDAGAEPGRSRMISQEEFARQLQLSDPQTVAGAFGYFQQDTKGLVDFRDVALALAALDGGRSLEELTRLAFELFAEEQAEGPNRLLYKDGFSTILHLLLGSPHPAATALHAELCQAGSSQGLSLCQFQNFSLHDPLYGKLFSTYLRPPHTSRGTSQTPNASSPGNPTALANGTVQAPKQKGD

Assays:
Test in all cases: log2 fold change, soluble protein after heating vs DMSO (PISA); higher = thermal stabilisation; K562 cells, 10 uM, 30 min; active = over 0.2 and 3.5 SD of the protein, either way, in both replicates (recomputed)
[1] = compound: CC[C@@H]1C(=O)N(C)c2cnc(Nc3ccc(C(=O)NC4CCN(C)CC4)cc3OC)nc2N1C1CCCC1
In short: (§1)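 Aliquots of K562 cells (2×10^6 cells/mL) treated with 10 μM compound for 30 min were heated for 3 min over 48°C-58°C. After pooling and extraction in PBS with 0.5% NP-40 at 4°C, soluble protein from a 21,000xg, 90 min spin was quantified by TMTpro 16plex LC-MS/MS with channel sums equalised. Thermal stability is expressed against control samples, from duplicates, as a log2 fold change.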

volasertib = compound: CC[C@@H]1C(=O)N(C)c2cnc(Nc3ccc(C(=O)N[C@H]4CC[C@H](N5CCN(CC6CC6)CC5)CC4)cc3OC)nc2N1C(C)C [volasertib]
In short: as §1

epoxomicin = compound: CC[C@H](C)[C@@H](C(=O)N[C@@H]([C@@H](C)O)C(=O)N[C@@H](CC(C)C)C(=O)[C@]1(CO1)C)NC(=O)[C@H]([C@@H](C)CC)N(C)C(=O)C [epoxomicin]
In short: as §1

[2] = compound: CCn1cc(-c2ccnc3[nH]c(-c4cccc(CN(C)C)c4)cc23)c(-c2ccc(NC(=O)N(C)C)cc2)n1
In short: as §1

[3] = compound: CN(C)CC(=O)Nc1ccc2[nH]c(=O)c3ccccc3c2c1
In short: as §1

[4] = compound: CN1C2=C(C3=C1C(=O)N(N=C3)CC4=CC(=CC=C4)N)SC(=C2)S(=O)C
In short: as §1

[5] = compound: CN1CCC(CNc2ccc3ncc(-c4cccc(OC(F)(F)F)c4)n3n2)CC1
In short: as §1

saracatinib = compound: CN1CCN(CCOc2cc(OC3CCOCC3)c3c(Nc4c(Cl)ccc5c4OCO5)ncnc3c2)CC1 [saracatinib]
In short: as §1

Tubastatin A = compound: CN1CCc2c(c3ccccc3n2Cc2ccc(C(=O)NO)cc2)C1 [Tubastatin A]
In short: as §1

[6] = compound: CNC(=O)C1=CC=CC=C1NC2=NC(=NC=C2Cl)NC3=C(C=C(C=C3)N4CCOCC4)OC
In short: as §1

defactinib = compound: CNC(=O)c1ccc(Nc2ncc(C(F)(F)F)c(NCc3nccnc3N(C)S(C)(=O)=O)n2)cc1 [defactinib]
In short: as §1

rucaparib = compound: CNCc1ccc(-c2[nH]c3cc(F)cc4c3c2CCNC4=O)cc1 [rucaparib]
In short: as §1

[7] = compound: CNc1nc(-c2ccc3c(N)n[nH]c3c2)cc(N2C[C@@H](C(=O)NC3CCCCC3)CC[C@H]2C)n1
In short: as §1

encorafenib = compound: COC(=O)N[C@@H](C)CNc1nccc(-c2cn(C(C)C)nc2-c2cc(Cl)cc(NS(C)(=O)=O)c2F)n1 [encorafenib]
In short: as §1

[8] = compound: COC(=O)[C@H](CCSC)NC(=O)C1=C(C=C(C=C1)NC[C@H](CS)N)C2=CC=CC=C2
In short: as §1

rosiglitazone = compound: CN(CCOC1=CC=C(C=C1)C[C@H]2C(=O)NC(=O)S2)C3=CC=CC=N3 (racemic) [rosiglitazone]
In short: as §1

sotrastaurin = compound: CN1CCN(c2nc(C3=C(c4c[nH]c5ccccc45)C(=O)NC3=O)c3ccccc3n2)CC1 [sotrastaurin]
In short: as §1

alvocidib = compound: CN1CC[C@H](c2c(O)cc(O)c3c(=O)cc(-c4ccccc4Cl)oc23)[C@H](O)C1 [alvocidib]
In short: as §1

[9] = compound: CC[C@H](C)N1C=C(C2=C(C=C(C=C21)C3=CN=C(C=C3)N4CCNCC4)C(=O)NCC5=C(C=C(NC5=O)C)C)C
In short: as §1

[10] = compound: CCn1c(C(=O)N(C2CC2)C2CC2)cc2c3c(ncn3C)c(Nc3cc(C)n(C)n3)nc21
In short: as §1

Measured: log2 fold change

KXD1 (UniProt Q9BQD3)
inactive: [1] -0.154 | volasertib -0.035 | epoxomicin -0.077 | [2] 0.041 | [3] 0.062 | [4] 0.011 | [5] -0.096 | saracatinib -0.097 | Tubastatin A -0.01 | [6] 0.008 | defactinib -0.03 | rucaparib -0.051 | [7] -0.07 | encorafenib 0.018 | [8] 0.017

LIN9 isoform 2 (UniProt Q5TKA1)
inactive: [1] -0.113 | epoxomicin 0.037 | [3] 0.205 | rosiglitazone -0.041 | sotrastaurin -0.207 | alvocidib -0.017 | Tubastatin A -0.132 | defactinib -0.05 | rucaparib -0.219 | encorafenib 0.205 | [8] -0.204

LRP10 (UniProt Q7Z4F1)
inactive: volasertib -0.056 | [9] 0.05 | epoxomicin 0.075 | rosiglitazone 0.029 | [4] 0.018 | saracatinib -0.13 | sotrastaurin -0.13 | alvocidib -0.207 | [7] -0.401

LIG4 (UniProt P49917)
inactive: [1] -0.126 | [9] 0.042 | [2] -0.143 | [3] 0.338 | [4] 0 | [5] 0.268 | saracatinib -0.163 | sotrastaurin -0.137 | defactinib -0.214 | rucaparib 0.198 | [7] 0.168 | encorafenib 0.251 | [8] -0.241

LRP1 (UniProt Q07954)
inactive: [1] 0.111 | [9] -0.036 | epoxomicin -0.038 | [2] -0.227 | [3] -0.042 | [4] 0.428 | [5] -0.096 | saracatinib 0.128 | Tubastatin A 0.076 | defactinib -0.129 | rucaparib -0.239 | [7] -0.12 | encorafenib 0.053 | [8] 0.012

LGALS3BP (UniProt Q08380)
inactive: [1] 0.166 | [9] -0.091 | epoxomicin -0.005 | rucaparib 0.007 | encorafenib -0.06

LEPROT (UniProt O15243)
inactive: [1] -0.052 | epoxomicin 0.129 | [2] 0.075 | [4] 0.117 | [5] -0.03 | saracatinib -0.261 | Tubastatin A -0.133 | [6] 0.087 | rucaparib 0.028 | [7] -0.25 | encorafenib -0.077

LCP2 (UniProt Q13094)
inactive: [1] -0.119 | epoxomicin 0.114 | [10] -0.066 | [2] 0.031 | [3] 0.038 | rosiglitazone -0.008 | [4] -0.075 | [5] -0.198 | saracatinib 0.123 | sotrastaurin -0.086 | Tubastatin A 0.063 | [6] 0.025 | defactinib -0.105 | rucaparib 0.071 | [7] 0.153 | encorafenib 0.043 | [8] 0.035

LBH (UniProt Q53QV2)
inactive: volasertib -0.017 | [9] -0.023 | epoxomicin 0.138

LAPTM4B (UniProt Q86VI4)
active: [5] 0.968
inactive: [1] 0.063 | [2] 0.216 | sotrastaurin -0.194 | [6] 0.007 | rucaparib 0 | encorafenib 0.009

LRFN1 (UniProt Q9P244)
inactive: [1] -0.015 | volasertib 0.033 | epoxomicin -0.125 | [3] 0.134 | [4] 0.069 | saracatinib 0.053 | sotrastaurin -0.08 | Tubastatin A -0.006 | [6] -0.24 | defactinib -0.048 | rucaparib 0.062 | [7] -0.028 | encorafenib -0.227 | [8] -0.069
active: alvocidib -0.44

LRCH4 (UniProt O75427)
inactive: [1] 0.288 | epoxomicin 0.136 | [2] 0.067 | [4] 0.495 | [5] -0.058 | saracatinib -0.097 | sotrastaurin -0.068 | rucaparib 0.272 | [7] 0.113 | encorafenib 0.379

LARGE2 (UniProt Q8N3Y3)
inactive: sotrastaurin 0.007

LBHD1 (UniProt Q9BQE6)
inactive: alvocidib -0.022

6 neighbouring records out of the list so far:
LRP10 (UniProt Q7Z4F1)
inactive: volasertib -0.056 | [9] 0.05 | epoxomicin 0.075 | rosiglitazone 0.029 | [4] 0.018 | saracatinib -0.13 | sotrastaurin -0.13 | alvocidib -0.207 | [7] -0.401

LIG4 (UniProt P49917)
inactive: [1] -0.126 | [9] 0.042 | [2] -0.143 | [3] 0.338 | [4] 0 | [5] 0.268 | saracatinib -0.163 | sotrastaurin -0.137 | defactinib -0.214 | rucaparib 0.198 | [7] 0.168 | encorafenib 0.251 | [8] -0.241

LRP1 (UniProt Q07954)
inactive: [1] 0.111 | [9] -0.036 | epoxomicin -0.038 | [2] -0.227 | [3] -0.042 | [4] 0.428 | [5] -0.096 | saracatinib 0.128 | Tubastatin A 0.076 | defactinib -0.129 | rucaparib -0.239 | [7] -0.12 | encorafenib 0.053 | [8] 0.012

LGALS3BP (UniProt Q08380)
inactive: [1] 0.166 | [9] -0.091 | epoxomicin -0.005 | rucaparib 0.007 | encorafenib -0.06

LEPROT (UniProt O15243)
inactive: [1] -0.052 | epoxomicin 0.129 | [2] 0.075 | [4] 0.117 | [5] -0.03 | saracatinib -0.261 | Tubastatin A -0.133 | [6] 0.087 | rucaparib 0.028 | [7] -0.25 | encorafenib -0.077

LCP2 (UniProt Q13094)
inactive: [1] -0.119 | epoxomicin 0.114 | [10] -0.066 | [2] 0.031 | [3] 0.038 | rosiglitazone -0.008 | [4] -0.075 | [5] -0.198 | saracatinib 0.123 | sotrastaurin -0.086 | Tubastatin A 0.063 | [6] 0.025 | defactinib -0.105 | rucaparib 0.071 | [7] 0.153 | encorafenib 0.043 | [8] 0.035

Going on with the list.

LDHD (UniProt Q86WU2)
inactive: [10] 0.057 | alvocidib -0.075 | [6] 0.096

LAPTM5 (UniProt Q13571)
inactive: [2] 0.119 | rosiglitazone 0.076 | [4] 0.214 | [5] -0.091 | saracatinib 0.105 | alvocidib 0.18 | Tubastatin A -0.143 | [7] -0.138

LIMS1 (UniProt P48059)
inactive: rosiglitazone -0.084

LIMK1 (UniProt P53667)
inactive: volasertib -0.209 | epoxomicin -0.3 | rosiglitazone 0.091 | sotrastaurin 0.117 | Tubastatin A -0.345

LPCAT4 (UniProt Q643R3)
inactive: epoxomicin 0.092 | alvocidib 0.009
